Measured values from PubChem BioAssay AID504834 (National Center for Advancing Translational Sciences (NCATS), 2011).
Hit rate of the full screen: of about 320,000 compounds, about 22,000 (6.9%) were called active. The inconclusive results got no clear call from the source; some entries with a clear call stand among them for comparison. Calls follow the shape of the dose curve; as a rule, active = well fitted inhibition curve with a large enough effect; inconclusive = small, poorly fitted or top-dose-only effect, or another doubt; inactive = no such curve, though single readings can be large or run the other way. A potency beside an inconclusive call is a rough fit, not a confirmed value.

assay: Primary qHTS for delayed death inhibitors of the malarial parasite plastid, 96 hour incubation; details: P. falciparum luciferase reporter growth; series mostly up to 28.7 µM; activity change, negative = inhibition: at the top concentration
Procedure, shortened: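 Infected RBCs, 2% Hct / 0.05% parasitemia final; luciferase-reporter P. falciparum; cpd 96 h, 37 C, 5% CO2; luciferase detection reagent; luminescence.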
% is scaled to controls: 0 for no effect and ±100 for the full control effect; potency is read from the fitted curve at half-maximal effect.

Compound	activity change, negative = inhibition	Potency
CN1CCN(NC(=O)NC2CCCCC2)CC1	inactive: -19.6%	
CSc1nc(N2CCOCC2)c2c(c1C#N)CC(C(C)C)OC2 (stereo not given)		inconclusive: 11.7 µM [inhibitor, single point]
CON(C)c1nc(OCCNC(=O)COc2ccc(Cl)cc2C)nc(N(C)C)n1		inconclusive: 8.28 µM [inhibitor, partial curve, poor fit]
Cc1cc(/C=N/NC(=O)c2cc3ccccc3o2)c(C)n1C	inactive: -12%	
Cc1csc(C)[n+]1CC(=O)c1ccccc1		active: 6.57 µM
CCc1nnc(NC(=O)CSc2nnc(Cc3cccn3C)n2CCOC)s1		inconclusive: 0.0928 µM [inhibitor, full curve, poor fit]
COc1ccccc1NC(=O)Cn1cnc2c(cnn2-c2ccc(C)c(C)c2)c1=O		inconclusive: 16.5 µM [inhibitor, single point]
CS(=O)(=O)c1ccc([C@@H](O)[C@@H](CO)NC(=O)C(Cl)Cl)cc1		active: 4.65 µM
Cc1cccc(N2CCN(C(=O)CSc3ccc4c(c3)OCCO4)CC2)c1C		inconclusive: 18.5 µM [inhibitor, single point]
CCOC(=O)C1(CC2CC2)CCN(Cc2cn[nH]c2-c2ccccc2)CC1		inconclusive: 4.65 µM [inhibitor, partial curve, poor fit]
CC(C)c1ccc(OCC(O)Cn2cnc3ccccc32)cc1 (stereo not given)		inconclusive: 11.7 µM [inhibitor, single point]
CC1Cc2ccccc2N1C(=O)/C=C/c1cccc(F)c1 (stereo not given)	inactive: 293%	
COC(=O)c1cc2c(s1)-c1ccccc1OC2	inactive: -2.53%	
Cc1ccc(Cn2c(SCC(=O)N3CC(=O)Nc4ccccc43)nc3ccccc3c2=O)cc1		active: 13.1 µM
Cn1c(SCC(=O)c2ccc3c(c2)Cc2ccccc2-3)nnc1-c1cccc(N)c1		inconclusive: 0.131 µM [inhibitor, full curve, poor fit]
Cc1ccc(C(=O)Nn2c(N)c(S(=O)(=O)c3ccc(C)cc3)c3nc4ccccc4nc32)cc1		inconclusive: 16.5 µM [inhibitor, single point]
CCOc1ccc(N2C(=O)CN(O)C=C3N=c4ccccc4=C32)cc1		inconclusive: 9.28 µM [inhibitor, single point]
CCOc1ccccc1Nc1nc(-c2sc(NC(=O)c3ccc([N+](=O)[O-])cc3)nc2C)cs1		inconclusive: 2.94 µM [inhibitor, single point]
O=C(C1=C[C@H](c2ccc3c(c2)OCO3)C[C@H](OCCCCO)O1)N1CCOCC1	inactive: 10.7%	
COc1cc(NC(=O)CNc2cccc(S(=O)(=O)N3CCOCC3)c2)cc(OC)c1		inconclusive: 20.8 µM [inhibitor, partial curve, poor fit]

Part of the list above in order of SMILES length, rising:
Compound	activity change, negative = inhibition	Potency
CN1CCN(NC(=O)NC2CCCCC2)CC1	inactive: -19.6%	
COC(=O)c1cc2c(s1)-c1ccccc1OC2	inactive: -2.53%	
CON(C)c1nc(OCCNC(=O)COc2ccc(Cl)cc2C)nc(N(C)C)n1		inconclusive: 8.28 µM [inhibitor, partial curve, poor fit]
